{
  "source": "ChEMBL document CHEMBL3853270",
  "about": "“Influence of Birch Bark Triterpenes on Keratinocytes and Fibroblasts from Diabetic and Nondiabetic Donors” (2016)",
  "assay_type_in_all_cases": "functional",
  "key": {"[1]": {"tested_on": "Keratinocyte", "assay": "Effect on pro-inflammatory related gene expression in non-diabetic young human primary keratinocytes assessed as IL1B mRNA levels at 1.96 uM after 6 hrs by qPCR analysis"}, "[2]": {"tested_on": "Keratinocyte", "assay": "Effect on antiinflammatory related gene expression in non-diabetic young human primary keratinocytes assessed as NFKBIA mRNA levels at 1.96 uM after 6 hrs by qPCR analysis"}, "[3]": {"tested_on": "Keratinocyte", "assay": "Effect on transcription factor related gene expression in non-diabetic young human primary keratinocytes assessed as JUN mRNA levels at 1.96 uM after 6 hrs by qPCR analysis"}, "[4]": {"tested_on": "Keratinocyte", "assay": "Effect on cellular connection related gene expression in diabetic adult human primary keratinocytes assessed as CLDN4 mRNA levels at 1.96 uM after 6 hrs by qPCR analysis"}, "[5]": {"tested_on": "Keratinocyte", "assay": "Effect on ECM related gene expression in diabetic adult human primary keratinocytes assessed as FBN1 mRNA levels at 1.96 uM after 6 hrs by qPCR analysis"}, "[6]": {"tested_on": "Keratinocyte", "assay": "Effect on ECM related gene expression in non-diabetic young human primary keratinocytes assessed as FBN1 mRNA levels at 9.81 uM after 6 hrs by qPCR analysis"}, "[7]": {"tested_on": "Keratinocyte", "assay": "Effect on transcription factor related gene expression in non-diabetic adult human primary keratinocytes assessed as JUN mRNA levels at 9.81 uM after 6 hrs by qPCR analysis"}, "[8]": {"tested_on": "Keratinocyte", "assay": "Effect on growth factor related gene expression in diabetic adult human primary keratinocytes assessed as PDGFB mRNA levels at 9.81 uM after 6 hrs by qPCR analysis"}, "[9]": {"tested_on": "Fibroblast", "assay": "Effect on pro-inflammatory related gene expression in non-diabetic adult human primary fibroblasts assessed as IL1B mRNA levels at 1.96 uM after 6 hrs by qPCR analysis"}, "[10]": {"tested_on": "Fibroblast", "assay": "Effect on MMP1 mRNA expression levels in diabetic adult human primary fibroblasts at 1.96 uM after 6 hrs by qPCR analysis"}, "[11]": {"tested_on": "Fibroblast", "assay": "Effect on antioxidant related gene expression in non-diabetic adult human primary fibroblasts assessed as NFE2L2 mRNA levels at 9.81 uM after 6 hrs by qPCR analysis"}},
  "note": "The source gives many values for each of these; only a part stands here.",
  "data": [
    {"smiles": "C=C(C)[C@@H]1CC[C@]2(CO)CC[C@]3(C)[C@H](CC[C@@H]4[C@@]5(C)CC[C@H](O)C(C)(C)[C@@H]5CC[C@]43C)[C@@H]12", "note": "[BETULIN]", "values": [
      {"measurement": "fold change (FC)", "setting": "[1]", "result": 0.8},
      {"measurement": "fold change (FC)", "setting": "[2]", "result": 1.5},
      {"measurement": "fold change (FC)", "setting": "[3]", "result": 1.5},
      {"measurement": "fold change (FC)", "setting": "[4]", "result": 1.3},
      {"measurement": "fold change (FC)", "setting": "[5]", "result": 1.3},
      {"measurement": "fold change (FC)", "setting": "[6]", "result": 1.3},
      {"measurement": "fold change (FC)", "setting": "[7]", "result": 1.9},
      {"measurement": "fold change (FC)", "setting": "[8]", "result": 1.4},
      {"measurement": "fold change (FC)", "setting": "[9]", "result": 159},
      {"measurement": "fold change (FC)", "setting": "[10]", "result": 0.6},
      {"measurement": "fold change (FC)", "setting": "[11]", "result": 1.7}
    ]}
  ]
}
